Test results published in PMC7819943, “Rice protein-binding microarrays: a tool to detect cis-acting elements near promoter regions in rice”.
The other results are listed elsewhere or left out.

The sequences below were run against T1, OsSMF1 (Oryza sativa, UniProt Q6ZLB0 1-436) (assay: protein-binding microarray (RPBM); PBS, 2% BSA, 51.3 ng/ul salmon testes DNA, 50 uM zinc acetate, 200 nM TF, 25 C, 1 h; high values mean tight binding). Details: protein: recombinant; tags: N-terminal polyhistidine and DsRed monomer fusion (pET32a); chain copies: 2; label: CyDye5-dUTP incorporated in the synthesized complementary strand; 3' TTTTT single-stranded linker to array surface; dsDNA, one strand shown.
T1 sequence: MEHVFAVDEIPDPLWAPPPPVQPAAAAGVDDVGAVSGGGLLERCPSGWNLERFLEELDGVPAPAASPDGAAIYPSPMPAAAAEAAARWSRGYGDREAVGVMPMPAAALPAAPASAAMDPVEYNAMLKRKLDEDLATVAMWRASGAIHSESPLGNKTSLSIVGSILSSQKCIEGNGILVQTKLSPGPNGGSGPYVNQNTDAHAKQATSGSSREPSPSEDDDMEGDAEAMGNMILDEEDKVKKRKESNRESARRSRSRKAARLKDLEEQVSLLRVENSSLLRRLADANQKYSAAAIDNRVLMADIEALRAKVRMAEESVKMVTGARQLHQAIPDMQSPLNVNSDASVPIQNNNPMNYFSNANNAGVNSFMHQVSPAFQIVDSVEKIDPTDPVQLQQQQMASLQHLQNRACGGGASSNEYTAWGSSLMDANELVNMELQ
Method in brief: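 The binding signal for each feature is its fluorescence intensity in arbitrary units. An Axon 4000B scanner was used to read a custom Agilent array that had been made double-stranded with Cy5-dUTP primer extension, blocked with 2% BSA, incubated at 25 °C for 1 h with 200 nM protein in PBS, 2% BSA, salmon testes DNA and 50 µM zinc acetate, and washed. The protein was an N-terminal polyhistidine–DsRed transcription factor fusion from E. coli BL21-CodonPlus, purified on Ni–NTA.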

| Sequence | binding signal |
| --- | --- |
| AGAATTTTGCAGACCGAGGCTTGGCCACCGAGGCGCAAGCCGGAGTCACCTAGTGCAG | 3790 fluorescence intensity (a.u.) |
| CGGATCTTTTAAGCCTAATTGCGTCATGATTTGACAATGTCGGAGTCACCTAGTGCAG | 3540 fluorescence intensity (a.u.) |
| AGGAATCAAAATCAGCACGTATGCACTAACACAAGCATCACGGAGTCACCTAGTGCAG | 6920 fluorescence intensity (a.u.) |
| GAGGAGGGAGACAGAAGGGAAAGAAACGCGTCCGTCAACGCGGAGTCACCTAGTGCAG | 3390 fluorescence intensity (a.u.) |
| CCACAACACGTTAGCACCTCATCGGCCCAATCTTGAAAGCCGGAGTCACCTAGTGCAG | 4130 fluorescence intensity (a.u.) |
| AAAGGATCAGAGCCGTACACGTGGCGTCCACGTCCACCCCCGGAGTCACCTAGTGCAG | 26400 fluorescence intensity (a.u.) |
| GACCAAGATGACAAAGATTACTATTATACTGATGATAACCCGGAGTCACCTAGTGCAG | 34100 fluorescence intensity (a.u.) |
| GAGCAATCCATGGAAATGGAATGACGCAATCAGAGGTGACCGGAGTCACCTAGTGCAG | 4560 fluorescence intensity (a.u.) |
| ACACAATTCACGTGCTCCCAACTTCCCAAGTCCACATCACCGGAGTCACCTAGTGCAG | 7000 fluorescence intensity (a.u.) |
| GTGGTTCCTGAACCTGGCCTCCCTCTCACTGATGATGACGCGGAGTCACCTAGTGCAG | 3450 fluorescence intensity (a.u.) |
| GCAATTCACTCCAGTTCACTTTGCCAGCTTGTCTCTCTGACGGAGTCACCTAGTGCAG | 3520 fluorescence intensity (a.u.) |
| CGCTGCTCCGGTTTTAAATGTTCGCTCTGGAGCCTCTTGTCGGAGTCACCTAGTGCAG | 12300 fluorescence intensity (a.u.) |
| GTGTGCACGTACGTGTAGCCGCCGCCGCAGATAGTACACCCGGAGTCACCTAGTGCAG | 4250 fluorescence intensity (a.u.) |
| AACGTGAATCTGAGATCGGATGCTGTGCCAAATAATGCCGCGGAGTCACCTAGTGCAG | 3770 fluorescence intensity (a.u.) |
| TGTGGCAAGAGCATTTGTTTGGTTTGATGCCAGCTCAAAGCGGAGTCACCTAGTGCAG | 3860 fluorescence intensity (a.u.) |
| AAACAAGTGCGATGTAGTTCATCATCAGCTGCGTCCGGTGCGGAGTCACCTAGTGCAG | 3340 fluorescence intensity (a.u.) |
| GTGTCAGATGAAGGCCGGGTCAAATTAGCCACGTAGGCGCCGGAGTCACCTAGTGCAG | 11500 fluorescence intensity (a.u.) |
| AATGTGTTAACTAATCAACTCGTCTCCCATCTCCTGCAAGCGGAGTCACCTAGTGCAG | 17600 fluorescence intensity (a.u.) |
| TACCATCTGCGCTCCCGGTGATGAAGTAGTCAGCAGGAGACGGAGTCACCTAGTGCAG | 3720 fluorescence intensity (a.u.) |
| ATGTCGGAGGTCCTCAGCAGGGTGGCATGCGGCATCGGTGCGGAGTCACCTAGTGCAG | 3140 fluorescence intensity (a.u.) |
| AGAGGATCCAATGCAATGCAATGTGATGTGAAGTTTTACCCGGAGTCACCTAGTGCAG | 3500 fluorescence intensity (a.u.) |
| GTAATGTTGCCAAATCACAAGATCGCACACCCAATTGATCCGGAGTCACCTAGTGCAG | 25600 fluorescence intensity (a.u.) |
| AACAAAAGGGCGCAGTCACCGGCCTCCTCATATACACGCGCGGAGTCACCTAGTGCAG | 3280 fluorescence intensity (a.u.) |

Individual results from above:
Value of AATGTGTTAACTAATCAACTCGTCTCCCATCTCCTGCAAGCGGAGTCACCTAGTGCAG under binding signal: 17600 fluorescence intensity (a.u.)
Value of AAAGGATCAGAGCCGTACACGTGGCGTCCACGTCCACCCCCGGAGTCACCTAGTGCAG under binding signal: 26400 fluorescence intensity (a.u.)
